{
  "sequences": {"note": "By UniProt entry, the sequences of proteins in these tests, tags left out. Where a name states a change or a piece, a line headed by the entry shows the natural chain unless it says otherwise.", "UniProt P06454": "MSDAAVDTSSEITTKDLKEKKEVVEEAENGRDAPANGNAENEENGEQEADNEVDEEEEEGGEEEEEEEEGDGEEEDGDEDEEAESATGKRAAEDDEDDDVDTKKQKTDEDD"},
  "source": "patent US8080522B2",
  "about": "(Institute of Pharmacology and Toxicology Academy of …, priority 2005, dated 2011)",
  "data": [
    {"experiment": "general procedure: Fmoc solid-phase peptide synthesis; Wang resin; DCC/HOBt", "details": "conjugation step", "units": {"conjugation yield": "%"}, "values": [
      {"substance": "Ac-[Cys^17(mPEG5000-MAL)]Tα1 (SDAAVDTSSEITTKDLCEKKEVVEEAEN; Thymosin alpha-1 N-acetyl; mPEG5000-maleimide on Cys17; UniProt P06454 2-29, looked up, variant K17C)", "conjugation yield": 42.6},
      {"substance": "Ac-[Cys^5(mPEG5000-MAL)]Tα1 (SDAACDTSSEITTKDLKEKKEVVEEAEN; Thymosin alpha-1 N-acetyl; mPEG5000-maleimide on Cys5; UniProt P06454 2-29, looked up, variant V5C)", "conjugation yield": 38.2},
      {"substance": "Ac-[Cys^8(mPEG5000-MAL)]Tα1 (SDAAVDTCSEITTKDLKEKKEVVEEAEN; Thymosin alpha-1 N-acetyl; mPEG5000-maleimide on Cys8; UniProt P06454 2-29, looked up, variant S8C)", "conjugation yield": 37.1},
      {"substance": "Ac-[Cys^16(mPEG5000-MAL)]Tα1 (SDAAVDTSSEITTKDCKEKKEVVEEAEN; Thymosin alpha-1 N-acetyl; mPEG5000-maleimide on Cys16; UniProt P06454 2-29, looked up, variant L16C)", "conjugation yield": 53.3}
    ]}
  ]
}
